Data taken from paper PMC7690953.
Results are given in words; binding and its absence hold for the method and conditions named. In cells and extracts the contact can be indirect. Some binding calls cover weakened binding; strength is not graded here. For part of these data: Tags and fused reporters may be left off the sequences shown.

By UniProt entry, the sequences of proteins in these tests, tags left out.
UniProt Q01650: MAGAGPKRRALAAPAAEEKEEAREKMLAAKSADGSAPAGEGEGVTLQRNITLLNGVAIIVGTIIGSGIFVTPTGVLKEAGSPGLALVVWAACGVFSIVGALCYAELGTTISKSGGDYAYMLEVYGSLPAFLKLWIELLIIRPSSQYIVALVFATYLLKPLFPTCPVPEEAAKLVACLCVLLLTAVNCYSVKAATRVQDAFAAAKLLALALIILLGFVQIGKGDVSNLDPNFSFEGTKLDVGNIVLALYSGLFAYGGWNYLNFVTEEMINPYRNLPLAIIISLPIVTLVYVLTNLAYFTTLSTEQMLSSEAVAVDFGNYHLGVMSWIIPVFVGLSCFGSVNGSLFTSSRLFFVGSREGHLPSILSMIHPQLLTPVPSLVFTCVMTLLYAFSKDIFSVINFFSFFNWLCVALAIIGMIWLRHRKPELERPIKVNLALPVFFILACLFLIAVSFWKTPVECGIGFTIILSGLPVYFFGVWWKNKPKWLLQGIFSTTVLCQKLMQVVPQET
UniProt Q92536: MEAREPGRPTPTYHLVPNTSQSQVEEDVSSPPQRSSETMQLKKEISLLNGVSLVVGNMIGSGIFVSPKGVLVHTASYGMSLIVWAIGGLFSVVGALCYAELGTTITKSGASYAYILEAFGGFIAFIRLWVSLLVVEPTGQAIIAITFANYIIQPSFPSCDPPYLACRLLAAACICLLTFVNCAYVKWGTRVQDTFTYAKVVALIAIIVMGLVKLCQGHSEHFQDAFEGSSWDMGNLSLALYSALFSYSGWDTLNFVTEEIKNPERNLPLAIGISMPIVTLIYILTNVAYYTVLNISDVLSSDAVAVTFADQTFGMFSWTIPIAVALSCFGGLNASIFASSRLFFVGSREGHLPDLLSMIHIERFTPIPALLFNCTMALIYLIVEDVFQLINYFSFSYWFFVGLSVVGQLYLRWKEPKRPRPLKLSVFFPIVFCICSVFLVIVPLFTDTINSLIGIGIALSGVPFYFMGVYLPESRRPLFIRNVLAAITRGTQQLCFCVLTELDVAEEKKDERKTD

T1: Kv1.1-nanoluc (human), Q09470
T1 chain: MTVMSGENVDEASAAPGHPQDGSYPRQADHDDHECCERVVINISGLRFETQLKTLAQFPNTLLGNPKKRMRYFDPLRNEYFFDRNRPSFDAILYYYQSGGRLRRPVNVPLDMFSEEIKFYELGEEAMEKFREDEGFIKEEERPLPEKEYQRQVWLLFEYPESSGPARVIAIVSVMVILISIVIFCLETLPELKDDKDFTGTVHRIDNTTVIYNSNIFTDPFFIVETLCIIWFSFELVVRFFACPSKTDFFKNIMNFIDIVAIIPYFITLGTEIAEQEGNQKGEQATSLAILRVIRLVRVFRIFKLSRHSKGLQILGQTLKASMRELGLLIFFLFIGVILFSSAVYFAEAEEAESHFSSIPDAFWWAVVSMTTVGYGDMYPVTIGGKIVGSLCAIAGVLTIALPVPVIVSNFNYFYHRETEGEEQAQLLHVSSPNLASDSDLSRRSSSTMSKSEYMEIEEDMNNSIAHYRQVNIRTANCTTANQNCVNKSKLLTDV


How the values were obtained:
[1] = molecular target: Kv1.1-nanoluc (human) (UniProt Q09470); assay: FRET or BRET; live mouse LM fibroblasts co-transfected with Kv1.1-nanoluc (donor) and an mEGFP-tagged acceptor; Nano-Glo live cell assay reagent; emission spectra 400-700 nm; nanoluc-subtracted EGFP emission, AUC normalised to Kv1.1-nanoluc + EGFP-Kv1.1
[2] = molecular target: T1, Kv1.1-nanoluc (human), Q09470; assay: as above; conditions: remark: other sources report otherwise

binding [1]	binding [2]	Molecule
binds	–	EGFP-Slc7a5 (from UniProt Q01650 1-507)
no binding	–	EGFP-Slc7a6 (from UniProt Q92536 1-515)
–	binds	Kv1.1-nanoluc, Q09470 1-495 (protein) MTVMSGENVDEASAAPGHPQDGSYPRQADHDDHECCERVVINISGLRFETQLKTLAQFPNTLLGNPKKRMRYFDPLRNEYFFDRNRPSFDAILYYYQSGGRLRRPVNVPLDMFSEEIKFYELGEEAMEKFREDEGFIKEEERPLPEKEYQRQVWLLFEYPESSGPARVIAIVSVMVILISIVIFCLETLPELKDDKDFTGTVHRIDNTTVIYNSNIFTDPFFIVETLCIIWFSFELVVRFFACPSKTDFFKNIMNFIDIVAIIPYFITLGTEIAEQEGNQKGEQATSLAILRVIRLVRVFRIFKLSRHSKGLQILGQTLKASMRELGLLIFFLFIGVILFSSAVYFAEAEEAESHFSSIPDAFWWAVVSMTTVGYGDMYPVTIGGKIVGSLCAIAGVLTIALPVPVIVSNFNYFYHRETEGEEQAQLLHVSSPNLASDSDLSRRSSSTMSKSEYMEIEEDMNNSIAHYRQVNIRTANCTTANQNCVNKSKLLTDV
